Data taken from ChEMBL document CHEMBL3988442, “University of Dundee, Small-Polar-MMV Screening Library” (2021).

Chains of the proteins cited; added tags and fusions are not shown.
UniProt P9WPC5, whole entry: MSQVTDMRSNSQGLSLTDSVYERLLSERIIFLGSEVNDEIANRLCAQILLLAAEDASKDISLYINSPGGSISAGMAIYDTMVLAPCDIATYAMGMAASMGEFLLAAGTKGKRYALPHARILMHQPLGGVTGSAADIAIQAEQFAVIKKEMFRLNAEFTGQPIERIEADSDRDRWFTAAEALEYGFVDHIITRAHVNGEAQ
UniProt P9WPC3, whole entry partner: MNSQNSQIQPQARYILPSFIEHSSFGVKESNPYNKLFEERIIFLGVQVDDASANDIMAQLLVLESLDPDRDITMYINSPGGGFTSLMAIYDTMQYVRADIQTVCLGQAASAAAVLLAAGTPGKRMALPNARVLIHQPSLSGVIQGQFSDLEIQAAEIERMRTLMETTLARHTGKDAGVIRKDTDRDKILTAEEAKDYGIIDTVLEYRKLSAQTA

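ClpP1P2, Mycobacterium tuberculosis (UniProt P9WPC5 and UniProt P9WPC3). Protease assay of ClpP1P2, read by the AMC dye that it sets free. Concentration: 50 µM. Direction is inferred from only a few compounds that gave an IC50; most scored high, so higher reads as stronger inhibition. Most other retested compounds had strongly negative values. Size under these conditions: about 69,000 compounds, about 10 of them at 50% or above in at least one test.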

Each number is a percent effect as filed.
How 0% and 100% were set is not recorded. Most values in the screen are low, and negative values occur.
This is an unselected part of the compounds tested.

SMILES,percent effect
CN(C)c1ccc2c(c1)CN(C(=O)c1ccco1)C2c1cnco1 (stereo unspecified),-3.244
Cc1ccc(N2CC[C@@H]3CN(Cc4cccc(C)n4)C[C@@H]3C2)nn1,-6.397
CC(=O)Nn1c(C)cc(CN2CCC(C(=O)N3CCCC3)CC2)c1C,13.78
COc1cc(Cl)ccc1C(=O)NCc1nncn1C,-14.16
O=C(c1ccncc1)N1CCOC2(COCCN(c3cncnc3)C2)C1 (stereo unspecified),2.107
CO[C@H]1CCN(C(=O)c2cc(C)on2)C[C@@H]1Cc1ccccc1,-2.912
Cc1nc(C)n(CCC(=O)NCC2CCCOC2)n1 (stereo unspecified),8.065
CN(CC(=O)NC(C)(C)C)Cc1nc(-c2ccccc2)c[nH]1,8.254
Cc1ccc(C2CSCCN2CC(=O)N2CCOCC2)cc1 (stereo unspecified),-11.41
Cc1cc(C)cc(CCC(=O)N(C)CCc2cn[nH]c2)c1,6.901
Cn1cnnc1C1CCN(C(=O)CCCOc2ccccc2)CC1,-18.98
Cc1ncc(CC(=O)N2CCC3(CCC(=O)N(C4CC4)C3)CC2)c(=O)[nH]1,10.27
CC1(C)Cc2nc(C(C)(C)C)ncc2C(NC(=O)Cc2nnn[nH]2)C1 (stereo unspecified),-5.032
Cc1nn(C)c2c(NCc3cccnc3)nc(C3CC3)nc12,-1.667
CSc1cccc(CN(C)C(=O)CN2CCN(c3ncccn3)CC2)c1,-14.41
Fc1cccc2c1CCC2NCc1ccc(N2CCOCC2)cc1 (stereo unspecified),-0.7248
Cc1cc(-c2nn(C)c(Cl)c2CN2CC[C@@](O)(C3CCC3)[C@H](C)C2)no1,13.33
CN(CCNS(C)(=O)=O)CC(c1cccs1)N1CCOCC1 (stereo unspecified),-1.189
CN1CCCC1c1cccc(Cc2ccccc2F)n1 (stereo unspecified),-5.541
Cn1nnc2c1CCN(C(=O)C1CC1)C2COCCN1CCCC1 (stereo unspecified),-14.72
Cc1cc(C2CCCN(C(=O)CN3CCN(C)CC3)C2)n[nH]1 (stereo unspecified),10.06
CCOCCC(=O)N1C[C@H]2CC[C@@H]1CN(c1ncccn1)C2,-4.033
Cc1nc(Nc2cnccn2)cc(C2CN(C(C)C)C2)n1,-7.259
CN1CCC2(CC1)CN(C)C(=O)C[C@@H]2C(F)(F)F,-6.987
CCc1nc(N)sc1C(=O)N1CCCC(COc2cccc(C)c2)C1 (stereo unspecified),3.219
Cc1n[nH]cc1CNC(C)c1cccc(N2CCCC2=O)c1 (stereo unspecified),9.65
CN(C)S(=O)(=O)N1C[C@@H](OCc2ccccn2)[C@H]2OCCC[C@H]21,14.25
CC1c2cc(F)ccc2CCN1C(=O)c1[nH]c(=O)[nH]c(=O)c1N (stereo unspecified),-7.803
CCSc1ccc(NC(=O)N2CCCC2c2ccncc2)cn1 (stereo unspecified),-5.985
COCC(=O)N1CCc2nc(NC(C)C)nc(NC(C)C)c2CC1,-15.23
COCCN(C)CCN1CC2(CCN(C3CCOCC3)CC2)OC1=O,11
O=C1Nc2ccccc2CN(C/C=C/c2ccccc2)C12CCNC2 (stereo unspecified),1.838
Cc1nnc2n1CCN(CCOc1ccccc1C#N)C2,-2.751
CC(=O)c1cc(CN2CCCCC2c2nc3cc(F)ccc3[nH]2)cs1 (stereo unspecified),1.335
CC(C)c1nc(-c2cc(C(=O)NCCCO)c3ccccn23)cs1,-12.09
CN(C)CCN1CCC2(CCN(C(=O)c3cccc(F)c3)CC2)C1=O,-3.533
CC(c1cc(O)nc(NC2CCCC2)n1)n1ncc2ccccc2c1=O (stereo unspecified),-6.028
CC(C)c1nc(CN(C)C(=O)C(O)c2ccc(Cl)cc2)cs1 (stereo unspecified),-14.72
c1coc(-c2nc3c(c(N4CCCN5CCC[C@H]5C4)n2)CCNCC3)c1,1.633
Cn1cccc1C(=O)N1CCO[C@@H]2CN(Cc3ccco3)C[C@@H]2C1,-4.16
C[C@@H]1CN(C(=O)c2cccs2)C[C@]12CCN(CCN(C)C)C2=O,7.953
O=c1c2ccccc2cnn1Cc1cncn1C1CC1,5.013
COc1ccc(Nc2ncccc2C#N)cc1N1CCCC1=O,-5.147
CC(C)(C)n1nc(C(=O)NCC2(C(N)=O)CCOCC2)cc1C1CC1,-1.313
NC(=O)CC1CCN(C(=O)NCCc2ccc(Cl)s2)CC1,9.301
Cc1cccc2c1ccn2CC(=O)O,8.164
Cc1nc2n(n1)CC(NCc1nnc(C(C)(C)C)o1)CC2 (stereo unspecified),-6.639
CSCCC1c2nc[nH]c2CCN1Cc1ccccc1C#N (stereo unspecified),-10.05
Cc1ccc(C(=O)N2CCn3cc(CN(C)Cc4ccco4)nc3C2)o1,-17.39
Cc1cccc2c1nc(COCC(=O)O)n2-c1ccc(N)nc1,0.9155
CCc1ccccc1CN1CCC(N2CCCC2=O)CC1,-9.117
CCc1ccc(S(=O)(=O)NCCOc2ccc3nnc(C)n3n2)s1,-10.19
CCN1CCOC(CNCc2csc(C)n2)C1 (stereo unspecified),-6.313
CN(Cc1ccsc1)Cc1nc(-c2ccncc2)no1,-8.578
CCCNc1ncc(CN2CCOC(Cc3cccc(F)c3)C2)cn1 (stereo unspecified),1.775
Cc1nc(N)c2ccc(C3CCCN3)nc2n1 (stereo unspecified),-3.946
N#Cc1ccc(C(=O)N2CC[C@H]3[C@H]2CCN3CC2CC2)cc1,-5.181
COc1ccccc1CN(CC1CCCO1)C(=O)c1csnn1 (stereo unspecified),-13.12
CC(C(=O)NCc1cccs1)N1CCN(Cc2nccn2C)CC1 (stereo unspecified),-12.98
CCc1nc2n(n1)CCCC2NC(=O)Nc1cccc(F)c1F (stereo unspecified),-1.916
Cc1ncsc1CCN(C)C(=O)c1ncccc1O,-0.6514
CN(CC1CN(Cc2cn3ccsc3n2)CCO1)c1cccnn1 (stereo unspecified),21.58
O=C(C1CCC1)N1CCC(C(=O)N2CCC(c3ccc(F)cc3)C2)CC1 (stereo unspecified),4.247
O=C(NCCC(=O)N1CCCC1)c1ccc(SCc2cccnc2)cc1,-5.831
Cc1[nH]c2c(C)ccc(C)c2c1CC(=O)NCC(O)c1cccnc1 (stereo unspecified),-2.224
Cc1nn(C)c(C)c1NC(=O)CCn1ncc2ccc(Cl)cc21,-1.092
O=C(N[C@H]1CN[C@H]2CCCO[C@H]21)c1cscn1,4.772
O=C(c1ccccc1C(F)(F)F)N1C[C@@H](CN2CCOCC2)[C@@H](CO)C1,-3.693
c1cncc(-c2ccnn2CN2CCC3(CC2)OCCO3)c1,-8.005
Cc1cc(Oc2ccccc2F)nc(C2CCCCN2)n1 (stereo unspecified),2.6
COCCNC(=O)CNC(=O)c1nc(Cc2c(Cl)cccc2Cl)no1,15.41
Cc1cc(C(F)(F)F)cc(N2CCN(Cc3ccccc3)CC(O)C2)n1 (stereo unspecified),-21.45
CCCc1noc(C(C)N2CC(n3cccn3)C2)n1 (stereo unspecified),8.737
CCc1cc(C(F)(F)F)c2c(C3CCN(C(=O)COC)CC3)noc2n1,-7.85
CCN(Cc1ccncc1)C1CCCN(Cc2ccc(F)cc2OC)C1 (stereo unspecified),-0.3974
CC(=O)N1CCC(CCNC(C)Cc2ccc(F)cc2)CC1 (stereo unspecified),-9.159
N#Cc1cccc(C(=O)N2C[C@H]3CC[C@@H]2CN(C(=O)C2CCC2)C3)c1,-5.253
Cc1c(CNCc2nn(-c3ccccc3)c3c2CCC3)cc(C#N)n1C,9.689
Cc1ocnc1C(=O)Nc1ccc(-c2nnc(N(C)C)o2)cc1,-4.344
CN(C)CCn1c(=O)oc2ccc(NC(=O)N3CCCCCC3)cc21,9.747
O=c1c(S(=O)(=O)N2CCCC2)cccn1Cc1ccc(F)cc1Cl,3.961
CN1CC2(CCN(C(=O)c3ccc(=O)n(C)c3)CC2)CC1=O,15.5
CCN(CC)C(=O)CS(=O)(=O)c1cc(OC)c(OC)cc1C,0.2631
CCOc1ccc2[nH]c(=O)c(CN3CCN(S(N)(=O)=O)CC3)cc2c1,-52.94
CC(C)(C)c1nnc(CN2CCCC(c3cc(C(N)=O)[nH]n3)C2)o1 (stereo unspecified),5.268
CN(Cc1ccc(F)cc1)CC1(O)CCCN(CC(C)(C)C)C1=O (stereo unspecified),-0.5483
COc1cccc(CN(C)CC(=O)NC2(C)CCS(=O)(=O)C2)c1 (stereo unspecified),-29.56
CC(=O)Nc1nc(C(=O)N2CCCC(n3nc(C)cc3C)C2)cs1 (stereo unspecified),-4.94
CC(C)c1noc(CCCC(=O)NC2CCS(=O)(=O)C2)n1 (stereo unspecified),7.839
CCSCCn1c(=O)n(Cc2ccc(F)cc2)c2ncc(C(=O)O)cc21,-8.386
CC(C)(C)C(N)c1nc(-c2nnc[nH]2)no1 (stereo unspecified),-5.549
O=C(CC1CC1)N1Cc2nccn2CC(COc2cccnc2)C1 (stereo unspecified),-17.02

Some entries from above, unchanged:

SMILES,percent effect
O=c1c(S(=O)(=O)N2CCCC2)cccn1Cc1ccc(F)cc1Cl,3.961
CN(C)CCn1c(=O)oc2ccc(NC(=O)N3CCCCCC3)cc21,9.747
CC(=O)Nn1c(C)cc(CN2CCC(C(=O)N3CCCC3)CC2)c1C,13.78
COc1ccc(Nc2ncccc2C#N)cc1N1CCCC1=O,-5.147
CCN1CCOC(CNCc2csc(C)n2)C1 (stereo unspecified),-6.313
CCc1ccc(S(=O)(=O)NCCOc2ccc3nnc(C)n3n2)s1,-10.19
N#Cc1ccc(C(=O)N2CC[C@H]3[C@H]2CCN3CC2CC2)cc1,-5.181
Cc1nn(C)c(C)c1NC(=O)CCn1ncc2ccc(Cl)cc21,-1.092